Record: PubChem BioAssay AID1224830 (NIAID, 2016)
This is a random part of about 18,000 reagents tested. In the full data, about 2,900 (16%) are marked active. 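Calls are made per well; low scores hint the gene aids the LPS response, high scores that it dampens it.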 Repeated entries: four replicate wells of each siRNA pool.

Screen: 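Host factors that control LPS-induced TNF expression in human macrophages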 (primary screen)
Cell system: human THP-1 monocytic leukaemia cells, TNF dual-luciferase reporter clone, PMA-differentiated to macrophage-like cells
Reagents: siRNA pool against human genes, 50 nM
Time to read-out: LPS for 4 h, given about 3 days after siRNA transfection
Conditions: bacterial LPS (TLR4 ligand), 10 ng/ml
Measurement: 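TNF firefly reporter luminescence divided by renilla, normalised to the plate median, then turned into a robust z-score for each replicate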
Direction: TNF reporter robust z-score: higher = stronger TNF reporter response to LPS
Hit rule: 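a well is active when its z-score exceeds 2.8 or falls below -1.5; control wells carry no call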

| gene symbol | TNF reporter robust z-score | activity call |
| --- | --- | --- |
| MBD2 (GeneID 8932) | -1.15 | inactive |
| MBD2 (GeneID 8932) | -0.98 | inactive |
| MBD2 (GeneID 8932) | -1.1 | inactive |
| MBD2 (GeneID 8932) | -1.22 | inactive |
| SSU72 (GeneID 29101) | 0.9 | inactive |
| SSU72 (GeneID 29101) | -0.78 | inactive |
| SSU72 (GeneID 29101) | -1.18 | inactive |
| SSU72 (GeneID 29101) | -1.32 | inactive |
| PTPN21 (GeneID 11099) | 0.01 | inactive |
| PTPN21 (GeneID 11099) | 0.81 | inactive |
| PTPN21 (GeneID 11099) | 2.2 | inactive |
| PTPN21 (GeneID 11099) | 1.05 | inactive |
| ARSI (GeneID 340075) | 5.72 | active |
| ARSI (GeneID 340075) | -1.51 | active |
| ARSI (GeneID 340075) | -1.58 | active |
| ARSI (GeneID 340075) | -1.53 | active |
| PRPF8 (GeneID 10594) | -0.49 | inactive |
| PRPF8 (GeneID 10594) | 0.28 | inactive |
| PRPF8 (GeneID 10594) | -0.88 | inactive |
| PRPF8 (GeneID 10594) | -1.34 | inactive |
| RLN3 (GeneID 117579) | -0.3 | inactive |
| RLN3 (GeneID 117579) | -0.61 | inactive |
| RLN3 (GeneID 117579) | -1.46 | inactive |
| RLN3 (GeneID 117579) | -1.06 | inactive |
| KCNJ11 (GeneID 3767) | -1.15 | inactive |
| KCNJ11 (GeneID 3767) | -1.12 | inactive |
| KCNJ11 (GeneID 3767) | -0.79 | inactive |
| KCNJ11 (GeneID 3767) | -0.55 | inactive |
| GDF10 (GeneID 2662) | -1.04 | inactive |
| GDF10 (GeneID 2662) | -0.19 | inactive |
| GDF10 (GeneID 2662) | -0.63 | inactive |
| GDF10 (GeneID 2662) | 0.27 | inactive |
| RPS6KA6 (GeneID 27330) | -0.07 | inactive |
| RPS6KA6 (GeneID 27330) | 0 | inactive |
| RPS6KA6 (GeneID 27330) | 0.37 | inactive |
| RPS6KA6 (GeneID 27330) | 0.99 | inactive |
| GTF3C4 (GeneID 9329) | -0.79 | inactive |
| GTF3C4 (GeneID 9329) | -0.5 | inactive |
| GTF3C4 (GeneID 9329) | -0.57 | inactive |
| GTF3C4 (GeneID 9329) | -0.82 | inactive |
| DIAPH2 (GeneID 1730) | 0.82 | inactive |
| DIAPH2 (GeneID 1730) | 0.18 | inactive |
| DIAPH2 (GeneID 1730) | 0.17 | inactive |
| DIAPH2 (GeneID 1730) | 0.3 | inactive |
| RER1 (GeneID 11079) | 2.09 | inactive |
| RER1 (GeneID 11079) | 0.68 | inactive |
| RER1 (GeneID 11079) | 0.27 | inactive |
| RER1 (GeneID 11079) | 0.46 | inactive |
